Hit rate of the full screen: of about 300,000 compounds, about 5,400 (1.8%) were called active. This list was built around the results that the source calls inconclusive (neither active nor inactive); the mix of calls is not that of the screen. The call rests on the fitted dose curve; tested in HEK293 cells. Potencies of inconclusive entries are doubtful fits and often do not repeat.
Assay: qHTS for inhibitors of binding or entry into cells for Marburg Virus
Conditions: Marburg virus pseudotyped entry inhibition, cell reporter; series mostly up to 37.8 µM
Potency means the concentration at half of the fitted maximal effect.

Structure (SMILES)	Potency
CCN(CC)CCCCCC(=O)Nc1ccccc1C(=O)Nc1ccccc1	inactive
CCOc1cc(CNCc2cccnc2)cc(Br)c1OCC(N)=O	inconclusive: 25.1 µM [inhibitor, single point]
CCOC(=O)C1=C(C)N=c2s/c(=C/c3ccccc3)c(=O)n2C1c1ccc(OC)c(OC)c1 (stereo not given)	inactive
CCCCn1c(=O)c(C(=O)NCc2ccco2)c(O)c2ccccc21	inactive
COc1ccc(CNC(=O)CSc2nc3ccsc3c(=O)n2Cc2ccccc2Cl)cc1	inactive
COC(=O)c1ccc(N2CCN(C(C)=O)CC2)c(NC(=O)c2cccnc2)c1	inconclusive: 6.31 µM [inhibitor, single point]
CCN1CCCC1CN(Cc1cc2cc(C)ccc2[nH]c1=O)C(=O)Nc1ccccc1OC (stereo not given)	inconclusive: 35.5 µM [inhibitor, single point]
COC1(NC(=O)c2ccccc2)C(C)=CC(=O)C=C1C	inactive
COc1ccccc1NC(=O)COc1ccc(Br)cc1CO	inactive
CN(c1ccccc1)S(=O)(=O)c1cc(C(=O)N2CCN(c3ncccn3)CC2)ccc1Cl	inconclusive: 7.08 µM [inhibitor, partial curve, poor fit]
COc1ccc(CNC2CCCc3ccccc32)cc1OC (stereo not given)	inconclusive: 11.2 µM [inhibitor, single point]
Cc1cc(Nc2cccc(C(F)(F)F)c2)ncn1	inactive
Cc1cccc(-c2nc3c4ccccc4nc(NCc4ccccc4Cl)n3n2)c1	inactive
COc1cccc(C2CC(c3ccccc3)=NN2S(=O)(=O)c2ccccc2)c1OC (stereo not given)	inconclusive: 5.01 µM [activator, partial curve, poor fit]
COc1ccc(CC(=O)NC(C)CCc2ccccc2)cc1OC (stereo not given)	inconclusive: 25.1 µM [inhibitor, single point]
CCC(CC)NC(=O)COC(=O)c1cc(SC)ccc1Cl	inactive
NCCNC(=O)c1c(NC(=O)c2ccccc2)sc2c1CCCC2	inconclusive: 35.5 µM [inhibitor, single point]
O=C(N/N=C/c1cccc(F)c1)c1ccc(Cl)cc1	inconclusive: 35.5 µM [inhibitor, single point]
CCOC(=O)c1cc(C#N)c(N2CCN(C(=O)c3ccccc3)CC2)nc1C(F)(F)F	inconclusive: 22.4 µM [inhibitor, single point]
CN1CCN(c2ccc(NC(=O)c3ccc4c(c3)OCO4)cc2)CC1	inconclusive: 11.6 µM [activator, partial curve, poor fit]
O=C(Nc1cccc(-c2cccc(F)c2)c1)C1CCN(CC2CCOC2)CC1 (stereo not given)	inconclusive: 14.1 µM [inhibitor, single point]
CCCCCCC(=O)N/N=C(\C)Cc1ccccc1	inactive
O=C(CSc1nc2ccccc2c(=O)n1CC1CCCO1)NCC1CCCO1 (stereo not given)	inactive

Structure (SMILES)	Potency
COc1ccc(C(=O)c2ccc(OC)cc2OC)cc1	inconclusive: 1.12 µM [inhibitor, full curve, poor fit]
OCCNCCOCCOc1ccccc1-c1ccccc1	inconclusive: 20.6 µM [inhibitor, partial curve, poor fit]
O=C(NCCc1ccccc1F)C1CCCN1S(=O)(=O)c1ccc2ccccc2c1 (stereo not given)	inconclusive: 29.1 µM [inhibitor, single point]
COc1ccc(/C=N/n2cnc3c(sc(=S)n3-c3ccccc3)c2=O)cc1	inconclusive: 35.5 µM [inhibitor, single point]
O=C(NCc1ccco1)NC1CCCCC1	inconclusive: 6.31 µM [activator, single point]
Cc1nn(-c2ccccc2)c(Cl)c1/C=N/Nc1nnc(C)c(=O)[nH]1	inconclusive: 35.5 µM [inhibitor, single point]
O=C1CC(NNC(=O)c2cccc(F)c2)C(=O)N1 (stereo not given)	inactive
CCN1CCN(Cc2c(O)ccc3oc(C)c(C(=O)Nc4ccc(OC)c(Cl)c4)c23)CC1	inconclusive: 12.6 µM [inhibitor, partial curve, poor fit]
CCOc1ccc(NC(=O)CN(C)C(=O)c2cc(S(=O)(=O)N(C)C)ccc2N2CCCC2)cc1OCC	inconclusive: 1.26 µM [activator, single point]
Oc1ccccc1N1CCN(C(=S)Nc2ccc(SC(F)F)cc2)CC1	inconclusive: 25.1 µM [inhibitor, single point]
O=C(CC(SCCO)c1ccc2c(c1)OCO2)c1cccs1 (stereo not given)	inconclusive: 29.1 µM [inhibitor, single point]
Nc1nc(NCCO)nc(NC2CCCCC2)c1[N+](=O)[O-]	inactive
Cc1cc([N+](=O)[O-])nn1Cc1ccc(C(=O)N/N=C/c2ccc(F)cc2)cc1	inconclusive: 1.26 µM [inhibitor, partial curve, poor fit]
CCOc1ccc(S(=O)(=O)N2CCN(C(=O)c3cc(C4CC4)nn3-c3ccccc3)CC2)cc1	inconclusive: 35.5 µM [inhibitor, single point]
CCC1CN(C(=O)NCc2ccccc2)c2ccccc2O1 (stereo not given)	inconclusive: 15.8 µM [inhibitor, single point]
CC(=O)Nc1ccc(S(=O)(=O)NCC(=O)OCC(=O)N2CCCc3ccccc32)cc1	inconclusive: 11.2 µM [activator, partial curve, poor fit]
CC(OC(=O)c1cc(=O)[nH]c2ccccc12)C(=O)Nc1ccccc1F (stereo not given)	inconclusive: 0.316 µM [inhibitor, full curve, poor fit]
COc1ccc(NC(=O)CSc2oc(-c3ccc(C)cc3)nc2S(=O)(=O)c2ccc(C)cc2)c(OC)c1	inactive
CCC(=O)Oc1c(Sc2ccc(Cl)cc2)c(C)nn1C(C)(C)C	inactive
O=C(Nc1cccc(F)c1)C1CCN(C(=O)c2ccccc2Cl)CC1	inconclusive: 25.1 µM [activator, partial curve, poor fit]
NC(=S)N/N=C1\CCSc2ccc(Cl)cc21	inactive
O=C(Nc1cccnc1)c1cc(-c2ccc(Br)cc2)nc2ccccc12	inconclusive: 10 µM [inhibitor, partial curve, poor fit]

Single values from above:
`O=C(Nc1cccc(F)c1)C1CCN(C(=O)c2ccccc2Cl)CC1` – Potency: inconclusive: 25.1 µM [activator, partial curve, poor fit]
`COc1ccc(C(=O)c2ccc(OC)cc2OC)cc1` – Potency: inconclusive: 1.12 µM [inhibitor, full curve, poor fit]
